{"source": "paper PMC12040169", "about": "(PLOS Biology, 2025)", "note": "The list shows a part of the results."}
{"test_system": "T1, CTL2-GFP (C. trachomatis L2/434/Bu, GFP-expressing)", "T1 construct": "L2/434/Bu, GFP-expressing", "design": "species or system HeLa; Intracellular C. trachomatis growth in HeLa cells, bulk GFP fluorescence relative to DMSO", "conditions": "bulk GFP, single well; 28.5 h, 10 µM; inhibitor", "units": {"% of control remaining": "%"}}
{"compound": "Cc1nnc(CSc2nnc(-c3ccc(Cl)cc3)[nH]2)o1", "note": "[CBK270241]", "% of control remaining": 129.631}
{"compound": "CC(Cc1c[nH]c2ccccc12)NC(=O)CSS(=O)(=O)O", "note": "(stereo not drawn) [CBK260942N]", "% of control remaining": 100}
{"compound": "CC[C@H]1CCCCN1C(=O)c1sc2ncccc2c1Cl", "note": "[CBK092276]", "% of control remaining": 119.729}
{"compound": "Cc1ccc2c(N)c(C(=O)c3ccc4c(c3)OCCO4)sc2n1", "note": "[CBK270265]", "% of control remaining": 162.498}
{"compound": "CCn1cncc1CN(Cc1ccc(F)cc1)CC1CCCO1", "note": "(stereo not drawn) [CBK283036]", "% of control remaining": 142.835}
{"compound": "O=C(Nc1ccc2[nH]ccc2c1)c1ccc(Cl)cc1", "note": "[CBK159668]", "% of control remaining": 97.4758}
{"compound": "CN1CCN(C(=O)c2ccc(NS(=O)(=O)c3cc(Cl)sc3Cl)cc2)CC1", "note": "[CBK034549]", "% of control remaining": 137.881}
{"compound": "COCCN(CCOC)c1ncc(C#N)cc1Cl", "note": "[CBK306227]", "% of control remaining": 136.259}
{"compound": "CN(c1ncc(-c2ccccc2)cc1C(=O)NCc1cccnc1)S(C)(=O)=O", "note": "[CBK076507]", "% of control remaining": 97.6541}
{"compound": "COc1ccc(C(=O)Nc2c(C)nn(C)c2N2CCNCC2)cc1", "note": "[CBK050306T]", "% of control remaining": 122.23}
{"compound": "COc1ccc(C2(C(=O)NCCCN3CCN(C)CC3)CC2)cc1", "note": "[CBK149822]", "% of control remaining": 104.135}
{"compound": "O=C(Cn1nnc2ccccc2c1=O)N1CCCC(C(F)(F)F)C1", "note": "(stereo not drawn) [CBK305900]", "% of control remaining": 129.18}
{"compound": "Cc1nc(C2(O)CCCN(C3CCCC3)CC2)sc1COc1ccc(Cl)cc1", "note": "(stereo not drawn) [CBK285940]", "% of control remaining": 104.124}
{"compound": "c1cnc(N2CCN(CC3CC3)CC2)c(OCCN2CCOCC2)n1", "note": "[CBK082909]", "% of control remaining": 116.44}
{"compound": "O=C(c1ccc[nH]1)N1CCc2ccccc21", "note": "[CBK200285]", "% of control remaining": 111.123}
{"compound": "O=C(NCc1c(F)cccc1F)c1ccc(-c2ccc(OC(F)(F)F)cc2)nc1", "note": "[CBK161007T]", "% of control remaining": 136.714}
{"compound": "OCCNc1ncnc2c1ncn2Cc1ccccc1", "note": "[CBK287933]", "% of control remaining": 126.938}
{"compound": "Cc1nn(C)cc1-c1cncn1CC1(N(C)C)CCC(C)CC1", "note": "(stereo not drawn) [CBK281799]", "% of control remaining": 127.496}
{"compound": "Cc1noc2nc(C3CCN(C(=O)C4CC4)CC3)cc(C(F)F)c12", "note": "[CBK285306]", "% of control remaining": 140.223}
{"compound": "Cc1nc(CCNC(=O)C2CC(c3cccc(F)c3)=NO2)cs1", "note": "(stereo not drawn) [CBK305798]", "% of control remaining": 127.061}
{"compound": "Cc1ccc(SCCC(=O)NC(CCC(=O)O)C(=O)O)cc1", "note": "(stereo not drawn) [CBK295173]", "% of control remaining": 144.216}
{"compound": "O=S1(=O)CC(OS(=O)(=O)c2ccc(Cl)cc2)C(OS(=O)(=O)c2ccc(Cl)cc2)C1", "note": "(stereo not drawn) [CBK262049]", "% of control remaining": 86.2794}
{"compound": "COc1ccc(NC(=O)c2ccc3nsnc3c2)cc1", "note": "[CBK263160]", "% of control remaining": 94.7385}
{"compound": "CCC(C)(C)c1ccc(S(=O)(=O)N2CCN(Cc3c(C)nn(C)c3C)CC2)cc1", "note": "[CBK062835]", "% of control remaining": 88.5963}
{"compound": "CS(=O)(=O)Nc1nccnc1N1CCN(C(=O)c2ccno2)CC1", "note": "[CBK048861]", "% of control remaining": 129.866}
{"compound": "O=C(O)c1ccc(NC(=O)c2cc(S(=O)(=O)N3CCCCC3)cs2)cc1", "note": "[CBK265722]", "% of control remaining": 135.375}
{"compound": "CCNC(=O)c1ccc(-n2cccn2)c(C#Cc2cccnc2)c1", "note": "[CBK283150]", "% of control remaining": 87.3476}
{"compound": "CC1CN(c2cc(CNc3ncccc3Cl)ccn2)CCO1", "note": "(stereo not drawn) [CBK306456]", "% of control remaining": 96.7521}
{"compound": "CCOC(=O)N1CCN(C(=O)CCC(=O)O)CC1", "note": "[CBK287075]", "% of control remaining": 107.643}
{"compound": "COCc1cc(C)nc(OCC(=O)N2CCCCC2)c1C#N", "note": "[CBK270228]", "% of control remaining": 119.31}
{"compound": "CN(C)S(=O)(=O)c1cccnc1OCC(O)CNC(C)(C)C", "note": "(stereo not drawn) [CBK058059]", "% of control remaining": 136.883}
{"compound": "CS(=O)(=O)N1CCc2cc(S(=O)(=O)NCCc3c[nH]c4ccccc34)ccc21", "note": "[CBK268487]", "% of control remaining": 131.241}
{"compound": "O=C(O)c1cc(NCc2ccccc2)ccc1N1CCOCC1", "note": "[CBK287099]", "% of control remaining": 104.447}
{"compound": "COc1ccc(C(=O)Nc2ccccc2)cc1S(=O)(=O)Nc1cccnc1", "note": "[CBK266771]", "% of control remaining": 114.817}
{"compound": "O=C(c1ccc2ncsc2c1)N1CCN(S(=O)(=O)c2ccc(C(F)(F)F)cc2)CC1", "note": "[CBK295285]", "% of control remaining": 114.597}
{"compound": "O=C(/C=C/c1cn(C2OC(CO)C(O)C2O)c(=O)[nH]c1=O)NCCCCCCNC(=O)C(F)(F)F", "note": "(stereo not drawn) [CBK201231]", "% of control remaining": 156.846}
{"compound": "O=C(O)Cn1c2ccccc2c2nc3ccccc3nc21", "note": "[CBK263649]", "% of control remaining": 128.462}
{"compound": "Fc1cnc(N2CCCC3(CCOC3)C2)nc1N1CCOCC1", "note": "(stereo not drawn) [CBK307131]", "% of control remaining": 146.132}
{"compound": "CCOC(=O)C1(O)CCN(c2ccc(C#N)cc2F)CC1", "note": "[CBK304836]", "% of control remaining": 91.6914}
{"compound": "CN(C1CCCCC1)S(=O)(=O)c1cc(Cl)ccc1Cl", "note": "[CBK261744]", "% of control remaining": 87.7091}
{"compound": "Cc1c(F)cccc1CNCCNC(=O)OC(C)(C)C", "note": "[CBK056700]", "% of control remaining": 122.435}
{"compound": "CCCn1ncc(C(=O)N2CCc3c([nH]c4ccccc34)C2C)c1C", "note": "(stereo not drawn) [CBK281546]", "% of control remaining": 83.686}
{"compound": "CC(C)NC(=O)c1cc([C@H]2CC[C@H](CNC(=O)CN3CCCC3)CC2)nc2ccccc12", "note": "[CBK285861]", "% of control remaining": 130.476}
{"compound": "C#CC1(NC(=O)NS(=O)(=O)c2ccc(C)cc2)CCCCC1", "note": "[CBK028805]", "% of control remaining": 119.136}
{"compound": "CC(=O)N[C@H]1CC[C@]2(C)CCC([C@H](C)C(=O)NCCN3CCOCC3)[C@H](O)[C@H]2[C@@H]1C", "note": "(stereo partly drawn) [CBK289434]", "% of control remaining": 103.455}
{"compound": "Cc1cccc2sc(NC(=O)c3ccccc3)nc12", "note": "[CBK287300]", "% of control remaining": 139.231}
{"compound": "Oc1ccccc1CN1CCN(Cc2ccccc2O)C1c1ccccc1Br", "note": "[CBK262050]", "% of control remaining": 99.5733}
{"compound": "O=C(Nc1ccc2n(c1=O)C[C@@H]1CNC[C@H]2C1)c1ccc(F)cc1", "note": "[CBK289078]", "% of control remaining": 120.532}
{"compound": "CS(=O)(=O)c1ccc(C(=O)N(Cc2ccccc2)c2ccc(S(=O)(=O)N3CCOC3=O)cc2)cc1", "note": "[CBK024590]", "% of control remaining": 95.961}
{"compound": "CNS(=O)(=O)c1ccc2c(c1)CCN2C(=O)C1C2CCCCC21", "note": "(stereo not drawn) [CBK281521]", "% of control remaining": 129.317}
{"compound": "O=C(CCc1nc(-c2ccccc2F)no1)Nc1ccccc1[N+](=O)[O-]", "note": "[CBK268341]", "% of control remaining": 140.164}
